According to PubChem BioAssay AID540276 (National Center for Advancing Translational Sciences (NCATS), 2011):
About 5,400 (1.8%) of roughly 300,000 compounds were called active. Inconclusive results, whose numbers are uncertain, are shown with a selection of clear calls. Calls follow the shape of the full dose curve; tested in HEK293 cells. Potencies of inconclusive entries are doubtful fits and often do not repeat.

Assay: qHTS for inhibitors of binding or entry into cells for Marburg Virus
Conditions: Marburg virus pseudotyped entry inhibition, cell reporter; series mostly up to 37.8 µM
Potency is read from the fitted curve at half-maximal effect.

Structure (SMILES) | Potency
O=C(NCc1ccco1)C(c1ccccc1F)N(Cc1cccnc1)C(=O)Cn1nnc2ccccc21 (stereo not given) | inconclusive: 22.4 µM [inhibitor, single point]
Cc1ccc(C)c(N2CCN(C(=O)CNS(=O)(=O)c3cccs3)CC2)c1 | inconclusive: 29.1 µM [inhibitor, single point]
O=C(NNC1=Nc2ccccc2SC1)c1ccccc1F | inconclusive: 5.62 µM [inhibitor, single point]
Cc1nn(CCCC(=O)NCc2ccc(Cl)cc2)c(C)c1[N+](=O)[O-] | inconclusive: 14.1 µM [activator, single point]
O=C(COC(=O)c1ccco1)Nc1ccc2c(c1)OCO2 | inactive
Cc1ccc(S(=O)(=O)CCc2nnc(N)s2)cc1 | inconclusive: 5.01 µM [inhibitor, single point]
O=C(Oc1ccccc1OC(=O)N1CCOCC1)N1CCOCC1 | inactive
Nc1[nH]n(-c2ccccc2)c(=O)c1N=Nc1ccccc1[N+](=O)[O-] | inconclusive: 0.517 µM [activator, full curve]
COc1ccccc1COc1ccc2c(C)c(CCC(=O)O)c(=O)oc2c1C | inconclusive: 5.62 µM [inhibitor, single point]
O=C(C[n+]1ccc(C(=O)NCc2ccccc2)cc1)c1ccc2c(c1)OCCO2 | inactive
CCOc1ccc(N(C(=O)c2ccc(OC)cc2)S(=O)(=O)c2ccc3c(c2)n(C)c(=O)n3C)cc1 | inconclusive: 35.5 µM [inhibitor, single point]
Cc1oc2c(c(=O)c1C)C(=O)CC(c1ccccc1)C2 (stereo not given) | inactive
CCn1c(=O)cc(O)c2ccccc21 | inconclusive: 31.6 µM [activator, single point]
COc1ccccc1OCCCn1c(C)c(C#N)c2ccccc21 | inconclusive: 25.1 µM [inhibitor, single point]
CCSc1nnc(NC(=O)C2C3CCC(C3)C2C(=O)O)s1 (stereo not given) | inactive
CCc1ccc(NC(=O)COC(=O)/C(=C/c2ccccc2OC)c2ccccc2)cc1 | inconclusive: 3.16 µM [inhibitor, single point]
CCOC(=O)c1cc(OC(=O)c2cccc(F)c2)n(-c2ccccc2)n1 | inconclusive: 3.16 µM [activator, single point]
CCN(CC)C(=O)Cn1cc(S(=O)(=O)CC(=O)N2CCOCC2)c2ccccc21 | inactive
Cc1cc(-n2c(C)cc(C(=S)N3CCOCC3)c2C)ccc1Br | inactive
Nc1ccccc1-c1nc2ccccc2[nH]1 | inconclusive: 29.1 µM [inhibitor, single point]
CN(c1cccc(NC(=O)CN(c2cccc(Cl)c2)S(=O)(=O)c2ccccc2)c1)S(C)(=O)=O | inconclusive: 10 µM [inhibitor, partial curve, poor fit]
COc1ccc(N2CCN(S(=O)(=O)CCNC(=O)CCCc3ccccc3)CC2)cc1 | inactive
COC(=O)CNC(=O)C1CCN(c2nc(C)cc(C)n2)CC1 | inactive
COc1ccc(C(CNC(=O)c2oc3ccc(OC)cc3c2C)N2CCCC2)cc1 (stereo not given) | inconclusive: 35.5 µM [inhibitor, single point]

Structure (SMILES) | Potency
NNC(=O)c1ccc(N2CCc3ccccc32)c([N+](=O)[O-])c1 | inconclusive: 35.5 µM [inhibitor, single point]
COc1ccc(C(CNC(=O)c2cccc(NS(=O)(=O)c3ccc(Br)cc3)c2)N(C)C)cc1 (stereo not given) | inconclusive: 35.5 µM [inhibitor, single point]
COc1ccc(Cc2nnc(NC(=O)C3CCCO3)s2)cc1 (stereo not given) | inactive
Cc1cc(Br)ccc1OCCCCN1CCCCC1 | inconclusive: 31.6 µM [inhibitor, partial curve, poor fit]
Cc1ccc(-c2cnc(N)n2C)cc1C | inactive
COc1ccc(CNC(=O)CN2C(=O)NC(C)(c3ccc(C(C)(C)C)cc3)C2=O)cc1 (stereo not given) | inconclusive: 12.6 µM [inhibitor, partial curve]
COc1ccc(NC(=O)C=C(C)C)cc1Cl | inactive
O=C(O)CCSc1nnc(SCC(=O)NCC(F)(F)F)s1 | inactive
O=c1oc2c(CN3CCOCC3)c(O)ccc2c2ccccc12 | inconclusive: 1.41 µM [activator, full curve, poor fit]
Cc1nn2c(-c3ccncc3)ccnc2c1Cl | inactive
Cc1csc(NC(=O)c2ccc(S(=O)(=O)N(C)c3ccccc3)cc2)n1 | inconclusive: 6.31 µM [inhibitor, partial curve, poor fit]
O=C(COc1cccc(NC(=O)c2cccc([N+](=O)[O-])c2)c1)c1ccc(Br)cc1 | inconclusive: 11.2 µM [inhibitor, partial curve, poor fit]
CC1CC1C(=O)OCC(=O)N(C)c1c(N)n(Cc2ccccc2)c(=O)[nH]c1=O (stereo not given) | inconclusive: 35.5 µM [activator, single point]
O=C(Nc1nc2ccccc2[nH]1)c1ccccc1F | active: 0.316 µM
Cc1cc(C)n(CCC(=O)N/N=C/c2ccc(Br)c([N+](=O)[O-])c2)n1 | inconclusive: 1.78 µM [inhibitor, partial curve, poor fit]
CC1CN(C(=O)N2c3ccccc3Sc3ccccc32)CC(C)O1 (stereo not given) | inconclusive: 29.1 µM [inhibitor, single point]
CSCCC(NS(=O)(=O)c1ccc(Cl)c(Cl)c1)C(=O)O (stereo not given) | inconclusive: 5.01 µM [inhibitor, partial curve, poor fit]
O=C(COC(=O)c1ccccc1SCC(=O)NC1CCCCC1)NC1CCCCC1 | inconclusive: 3.66 µM [inhibitor, partial curve, poor fit]
Cc1nc2c(-c3ccccc3)cnn2c(N)c1-c1ccccc1 | inconclusive: 8.91 µM [inhibitor, partial curve, poor fit]
O=C(COC(=O)COc1ccccc1)Nc1ccc(Br)cc1F | inactive
C[C@@H](NS(=O)(=O)c1c(F)cccc1F)c1ccccc1 | inconclusive: 0.0353 µM [activator, full curve, poor fit]
O=C(NC1CCCc2ccccc21)c1ccccc1Br (stereo not given) | inactive
CC(C)Oc1ccc(C(=O)NC2CCCCC2)cc1 | inactive
Cc1ccc(N(C(=O)CCC(=O)Nc2nccs2)C(C(=O)NC(C)(C)C)c2ccc(O)cc2)cc1 (stereo not given) | active: 8.91 µM

Structure (SMILES) | Potency
O=C(Nc1cccc(S(=O)(=O)N2CCCCCC2)c1)c1ccc(Cl)nc1 | inconclusive: 17.8 µM [inhibitor, partial curve, poor fit]
CCOC(=O)N1CCN(Cc2nc3cc(NC(=O)c4ccc([N+](=O)[O-])cc4)ccc3n2C(C)C)CC1 | inconclusive: 1.26 µM [inhibitor, full curve, poor fit]
O=C(NCC(=O)N1CCN(S(=O)(=O)c2ccccc2F)CC1)c1ccc2c(c1)OCO2 | inactive
Cc1[nH]n(-c2ccccc2)c(=O)c1C(=O)c1ccc([N+](=O)[O-])cc1 | inconclusive: 10 µM [inhibitor, partial curve]
Cc1nc(N2CCN(C(=O)COc3ccccc3)CC2)c2c(C)c(C)sc2n1 | inconclusive: 32.6 µM [inhibitor, partial curve, poor fit]
Cc1nc(NC(=O)c2cccc(-c3cc4ccccc4oc3=O)c2)ccc1Br | inconclusive: 1.26 µM [activator, single point]
CC(NC(=O)C1=CC=CN2CCS(=O)(=O)N=C12)c1ccc(Cl)cc1Cl (stereo not given) | inactive
COc1ccc(-c2cn(-c3ccc(SC(F)F)cc3)c3[n+]2CCC3)cc1OC | inconclusive: 12.6 µM [inhibitor, partial curve]
CCOc1ccc(C2C(C(N)=O)=C(C)Nc3nc(-c4cccc(Cl)c4)nn32)cc1OC (stereo not given) | inactive
CCNC(=O)CSc1nnc(-c2cc(-c3ccc(Cl)cc3)nc3ccccc23)o1 | inconclusive: 0.891 µM [inhibitor, full curve, poor fit]
CCOC(=O)Cc1cc(=O)n2[nH]c(-c3ccc(C)cc3)cc2n1 | inactive
O=c1cc(-c2ccccc2)nc(SCc2ccc(F)cc2)[nH]1 | inconclusive: 17.8 µM [activator, partial curve, poor fit]
Cc1ccc(S(=O)(=O)n2oc(=O)c(C3CCCCC3)c2N)cc1 | inconclusive: 2.82 µM [inhibitor, full curve]
CC1=CC(C2CC(=O)N(c3ccccc3C)C2=O)CC2C(=O)N(c3ccccc3C)C(=O)C12 (stereo not given) | inconclusive: 12.6 µM [activator, single point]
CCOc1ccc(S(=O)(=O)Nc2ccc(OC)c(Cl)c2)c2cccnc12 | inactive
CC(C)(C)NS(=O)(=O)c1cccc(S(=O)(=O)c2cccc(S(=O)(=O)NC(C)(C)C)c2)c1 | inconclusive: 18.3 µM [inhibitor, single point]
COc1ccc(-c2cc(C(=O)OCC(=O)NC(C)C)c3ccccc3n2)cc1 | inconclusive: 5.62 µM [activator, single point]
CCCCC(CC)C(=O)Nc1ccc(Nc2ccccc2)cc1 (stereo not given) | inactive
Cc1cccc(OCCSc2nc3ccccc3n2CC(=O)N2CCOCC2)c1C | inactive
Cc1cc2c(cc1C)NC(c1c(C)n(C)n(-c3ccccc3)c1=O)C1=C(CC(C)(C)CC1=O)N2 (stereo not given) | inconclusive: 0.562 µM [activator, single point]
CCOC(=O)N1CCC(n2c(=S)[nH]c3cc(OCC)c(OCC)cc3c2=O)CC1 | inconclusive: 14.6 µM [inhibitor, partial curve]
COc1ccc(CCC(=O)NNC(=O)c2ccc(OC)cc2)cc1 | inconclusive: 31.6 µM [activator, single point]
